# The other results are listed elsewhere or left out.
# System: T1, CTL2-GFP (C. trachomatis L2/434/Bu, GFP-expressing)
# T1 construct: L2/434/Bu, GFP-expressing
# Set-up: species or system HeLa; Intracellular C. trachomatis growth in HeLa cells, bulk GFP fluorescence relative to DMSO
# Details: bulk GFP, single well; 28.5 h, 10 µM; inhibitor
row,Structure (SMILES),% of control remaining [%]
1,COc1ccc(Cl)cc1NC(=O)CN(C1CCCCC1)S(C)(=O)=O [CBK266720],126.67
2,Cn1cc(C(=O)N2CCc3ccccc32)c2ccccc21 [CBK200407],111.748
3,CC(=O)N1c2ccc(-c3cn4cc(C)ccc4n3)cc2CC1C (stereo not drawn) [CBK285195],105.869
4,CC(=O)N1CCc2sccc2C1c1ccccc1NC(=O)c1ccco1 (stereo not drawn) [CBK286436],136.833
5,Cc1nnc(SCC(=O)N/N=C/c2coc3ccccc3c2=O)n1-c1ccccc1 [CBK262842],100
6,Cc1cccc(C(=O)NC(CC(C)C)c2nnc3n2CCNCC3)n1 (stereo not drawn) [CBK306866],113.394
7,CC1CCCCN1Cc1nc2c(c(=O)n(C)c(=O)n2C)n1CCc1ccccc1 (stereo not drawn) [CBK269189],112.733
8,Cc1oc(-c2ccccc2)nc1C(=O)N1CCCN(C)CC1 [CBK073940C],80.4871
9,COc1cccc(-c2nnc(SCC(=O)Nc3cccc([N+](=O)[O-])c3)n2C)c1 [CBK266074],124.985
10,Cc1cc(NC(=O)CN(C)C(=O)Cc2cccc(C(F)(F)F)c2)no1 [CBK305564],147.061
11,C=CCNC(=O)C1(Cc2ccccc2-c2ccncc2)CCOCC1 [CBK284784],126.101
12,c1ccc2c(c1)OCC(c1nn3c(Cn4cnc5ccccc54)nnc3s1)O2 (stereo not drawn) [CBK268436],108.513
13,Cc1ccc(C(=O)COc2ccc(/C=C(\C#N)c3nc(-c4ccc5c(c4)OCO5)cs3)cc2)cc1 [CBK266778],124.006
14,Cc1ccc(S(=O)(=O)N/N=C(/c2ccccc2)c2ccc(OCC(C)C)cc2)cc1 [CBK261056],82.9854
15,CC(=O)N[C@H]1CC[C@]2(C)CCC([C@H](C)C(=O)NCCN3CCCC3)[C@H](O)[C@H]2[C@@H]1C (stereo partly drawn) [CBK289440],156.616
16,Cc1nnc(SCC(=O)NCCc2ccccc2)nc1O [CBK268045],135.454
17,O=C(COc1ccccc1)NC(/C=C/c1ccccc1)c1cc(Cl)c2cccnc2c1O (stereo not drawn) [CBK263994],66.278
18,CCc1cnccc1C(=O)N1CCC(NC(=O)c2cnn(C)c2)CC1 [CBK305388],120.699
19,O=C(c1cc(-c2ccncc2)nc2ccc(Cl)cc12)N1CCN(c2ccc([N+](=O)[O-])cc2)CC1 [CBK267748],123.431
20,CNC(=O)C1(Cc2ccc(-c3ccccc3)cc2)CCN(C(=O)Cc2ccc(C)cc2)CC1 [CBK285769],120.037

row,Structure (SMILES),% of control remaining [%]
1,CC(C)CN(CCc1ccc(O)cc1)CC(=O)NC1(c2ccccc2)CCC1 [CBK067781T],73.7362
2,CC(CN1CCCCC1)OC(=O)COc1ccc(F)cc1 (stereo not drawn) [CBK058066C],126.073
3,CN1CCC[C@H]1C(=O)Nc1nc2c(s1)C(=O)CC(C)(C)C2 [CBK144101],103.291
4,N#Cc1c(NC(=O)C(=O)NCc2cccnc2)sc2c1CCCC2 [CBK269485],133.786
5,CCN(CC)S(=O)(=O)c1ccc(Cl)c(C(=O)Oc2cccc3cccnc23)c1 [CBK263205],109.333
6,COc1ccc(-c2ccccc2CC2(C(=O)NCc3cccs3)CCOCC2)cc1 [CBK286429],117.472
7,CCOc1ccc(-c2cncc(NC3CCC(O)CC3)n2)cc1 (stereo not drawn) [CBK065877],102.499
8,S=c1[nH]nc(Nc2ccccc2)n1-c1ccccc1 [CBK026332],113.567
9,NCCCNCCOc1ccc(Cl)c(Cl)c1 [CBK268631C],41.7265
10,Cc1onc(-c2ccccc2)c1CNC(=O)c1cccnc1 [CBK144100],99.5833
11,Fc1cccc2sc(Nc3nc(-c4ccccn4)cs3)nc12 [CBK287479],64.4796
12,CCOC(=O)c1cccnc1-c1ccc(OC)c(OC)c1 [CBK149240],125.248
13,O=C(Nc1ccc(S(=O)(=O)Nc2nccs2)cc1)c1cc(-c2cccnc2)nc2ccc(Cl)cc12 [CBK267721],132.373
14,CC1=NN(c2ccc([N+](=O)[O-])cc2)C(=O)/C1=C/NCCN1CCN(C(=O)c2ccc(F)cc2)CC1 [CBK262920],90.0606
15,CC(C)(C)OC(=O)NC1CCC(NCc2ccncc2)CC1 (stereo not drawn) [CBK056688],112.253
16,CCOc1ccc(CN(C)CC(=O)Nc2cc(C)no2)cc1 [CBK305605],140.595
17,CN(C(=O)c1ccc2c(c1)NC(=O)CS2)c1ccccc1 [CBK296612],104.845
18,O=C(NC1(C#Cc2cnc3ccccc3c2)CCCCC1)C1CCCO1 (stereo not drawn) [CBK283085],118.868
19,COc1cc(S(=O)(=O)NCCCn2ccnc2)ccc1Cl [CBK269186],124.377

# Reformatted bar-delimited: 2 of the compounds above.
row | Structure (SMILES) | % of control remaining [%]
14 | Cc1ccc(S(=O)(=O)N/N=C(/c2ccccc2)c2ccc(OCC(C)C)cc2)cc1 [CBK261056] | 82.9854
15 | CC(=O)N[C@H]1CC[C@]2(C)CCC([C@H](C)C(=O)NCCN3CCCC3)[C@H](O)[C@H]2[C@@H]1C (stereo partly drawn) [CBK289440] | 156.616

# From PMC12040169 (PLOS Biology, 2025)
